The text below walks through data of the supplement of paper PMC8256030.

“And” between values parts separate entries of the source, which are not always exact repeats. Equal entries are not always repeated. Structures can show the parent of a compound that is named as a salt. This is one part of the list. Single values are uncertain here, since repeats match poorly.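 HEK293T cells were given each compound shortly before transfection with a reporter in which red mCherry is followed by the SARS-CoV-2 frameshift element and then GFP in the −1 frame, so GFP appears only after frameshifting.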

For test [1], the system named is SARS-CoV-2 -1 PRF reporter mCherry-FSE-GFP(-1). The test can be described thus: mCherry (red) intensity as percent of control; higher = higher upstream reporter expression. As to conditions: 10 µM; 24 h; HEK293T.
The test system is the same in test [2]. Briefly: percent effect, decrease of GFP/mCherry ratio (-1 PRF reporter) relative to controls; higher = stronger frameshift inhibition. The conditions noted are these: 10 µM; 24 h; HEK293T.

Regarding `CC(C)[C@H](NC(=O)[C@H](CC(=O)O)NC(=O)[C@H](CCCCN)NC(=O)[C@@H](N)CCCN=C(N)N)C(=O)N[C@@H](Cc1ccc(O)cc1)C(=O)O`, the mCherry in test [1] came to 96.7%. Besides, in test [2], the percent effect worked out at 0.203%.

`COc1ccc2c(c1OC)C(=O)O[C@@H]2[C@H]1c2c(cc3c(c2OC)OCO3)CCN1C` returned a mCherry in test [1] of 117%. Moreover, the percent effect in test [2] is -10.7%.

Compound `O=C1O[C@H](CO)[C@@H](O)[C@H](O)[C@H]1O` came in with a mCherry in test [1] of 95.8%. Moreover, the percent effect in test [2] is -1.39%.

The compound `N#Cc1c(N(CC(=O)O)CC(=O)O)sc(C(=O)O)c1CC(=O)O` [ranelic acid] registered a mCherry in test [1] of 75.9%. For the same compound, in test [2], the percent effect was -1.07%.

Consider `CCN(CC)C(=O)C1(c2ccccc2)CC1CN` (configuration not stated) [milnacipran], for which, in test [1], the mCherry came to 98.9%. Also, in test [2], the percent effect was -4.62%.

`C=C1[C@H](CO)[C@@H](O)C[C@@H]1n1cnc2c(=O)[nH]c(N)nc21` [entecavir]: the mCherry in test [1] came to 54.2%. For the same compound, the percent effect in test [2] is -9.95%.

With `CC(=O)c1cc2cccc(OCC(O)CNC(C)C)c2o1` (configuration not stated) [befunolol], the mCherry in test [1] was found to be 80.6%. Besides, in test [2], the percent effect was -2.91%.

`CO/N=C(\C(=O)N[C@@H]1C(=O)N2C(C(=O)O)=C(CSc3nnnn3C)CS[C@H]12)c1csc(N)n1` had a mCherry in test [1] of 91.6%. Besides, in test [2], the percent effect was -1.58%.

`Cc1ccc(Cl)c(Nc2ccccc2C(=O)O)c1Cl` [meclofenamic acid] displayed a mCherry in test [1] of 68.4%. Moreover, the percent effect in test [2] is -11.1%.

In turn, `CCOC(=O)c1cnc2cc(OCC(C)C)c(OCC(C)C)cc2c1O` [buquinolate] returned a mCherry in test [1] of 81.2%. Besides, in test [2], the percent effect was -7.52%.

Compound `Cc1cccc(CN2CCN(C(c3ccccc3)c3ccc(Cl)cc3)CC2)c1` (configuration not stated) [meclozine] showed a mCherry in test [1] of 98.8%. The percent effect in test [2] was -6.23%.

`NCc1c[nH]c(=S)n1[C@H]1CCc2c(F)cc(F)cc2C1` [nepicastat] showed a mCherry in test [1] of 104%. Further, the percent effect in test [2] is -17.3%.

On to `CCc1nn(CCCN2CCN(c3cccc(Cl)c3)CC2)c(=O)n1CCOc1ccccc1` [nefazodone], for which the mCherry in test [1] amounted to 95.7%. Also, the percent effect in test [2] was -5.89%.

Compound `CN/C(=N\CCSCc1nc[nH]c1C)NC#N` showed a mCherry in test [1] of 108%. Also, the percent effect in test [2] is -4.44%.

As to `CN1CCC(OC(c2ccccc2)c2ccccc2)CC1` [diphenylpyraline], the mCherry in test [1] was determined as 95.6%. Also, the percent effect in test [2] was -5.18%.

For the compound `Cc1cccc(C)c1NC(=O)CN1CCCCCC1` [pincainide], the mCherry in test [1] amounted to 97.7%. For the same compound, the percent effect in test [2] is -3.18%.

With `Cc1ncc([N+](=O)[O-])n1CC(C)O` (configuration not stated) [secnidazole], in test [1], the mCherry was 110% and 86.8%. In test [2], the percent effect was -0.00663% and -0.767%.

In test [1], `COC(=O)N/N=C/c1c[n+]([O-])c2ccccc2[n+]1[O-]` [carbadox] had a mCherry of 81.2%. In addition, the percent effect in test [2] was -11.2%.

Take `CC(C)(C)c1cc(C(C)(C)C)c(NC(=O)c2c[nH]c3ccccc3c2=O)cc1O` [Kalydeco]: the mCherry in test [1] came to 102%. The percent effect in test [2] worked out at 0.513%.

`CC1=C(CC(=O)O)c2cc(F)ccc2/C1=C\c1ccc([S+](C)[O-])cc1` (configuration not stated) displayed a mCherry in test [1] of 118%. Also, the percent effect in test [2] is -2.56%.

For `Cn1nnnc1SCC1=C(C(=O)O)N2C(=O)[C@@H](NC(=O)[C@H](OC=O)c3ccccc3)[C@H]2SC1`, the mCherry in test [1] turned out to be 136%. Further, the percent effect in test [2] was 0.947%.

As for `CCN1CCCC(OC(=O)C(c2ccccc2)c2ccccc2)C1` (configuration not stated) [piperidolate], the mCherry in test [1] was determined as 109%. Also, the percent effect in test [2] was -2.08%.

In test [1], `CCN[C@H]1C[C@H](C)S(=O)(=O)c2sc(S(N)(=O)=O)cc21` [dorzolamide] yielded a mCherry of 103%. The percent effect in test [2] stood at 3.98%.

`CCC(C(=O)O)c1ccc(-c2ccccc2)cc1` (configuration not stated) [xenbucin]: in test [1], the mCherry was determined as 93.7%. The percent effect in test [2] was -0.469%.

Turning to `CO/N=C(\C(=O)N[C@@H]1C(=O)N2C(C(=O)O)=C(COC(C)=O)CS[C@H]12)c1ccco1` [cefuracetime], the mCherry in test [1] turned out to be 85.6%. The percent effect in test [2] was 1.16%.

Consider `N/C(CC(O)COc1cccc2ccccc12)=N/O` (configuration not stated) [nadoxolol], for which the mCherry in test [1] was 54.9%. For the same compound, the percent effect in test [2] came to 1.27%.

The compound `COc1c(N2C[C@@H]3CCCN[C@@H]3C2)c(F)cc2c(=O)c(C(=O)O)cn(C3CC3)c12` [Moxifloxacin·HCl] displayed a mCherry in test [1] of 87.1%. The percent effect in test [2] worked out at 3.61%.

`CCCCOCCOC(=O)c1cccnc1` [nicoboxil] gave a mCherry in test [1] of 104%. Moreover, in test [2], the percent effect was -5.81%.

For `Cc1cc(C(C)(C)C)cc(C)c1CC1=NCCN1` [xylometazoline], the mCherry in test [1] was determined as 96.9%. Further, the percent effect in test [2] is -2.71%.

Consider `CC1(C)S[C@@H]2[C@H](NC(=O)C(C(=O)O)c3ccccc3)C(=O)N2[C@H]1C(=O)O` (some centres not stated), for which the mCherry in test [1] was found to be 95.9%. In addition, the percent effect in test [2] was 1.18%.

As for `CC(O)(CC(=O)O)CC(=O)O` [meglutol], the mCherry in test [1] amounted to 98.4%. Besides, the percent effect in test [2] is -1.84%.

In the case of `COc1nc(C)nc(Cl)c1NC1=NCCN1` [moxonidine], the mCherry in test [1] is 90.6%. In addition, the percent effect in test [2] was -6.95%.

Turning to `CC1Oc2ccc(Cl)cc2N(CC(O)CO)C1=O` (configuration not stated) [diproxadol], the mCherry in test [1] was 92.2%. Further, the percent effect in test [2] is 0.453%.

For the compound `FCOC(C(F)(F)F)C(F)(F)F` [sevoflurane], the mCherry in test [1] is 99.8%. Moreover, the percent effect in test [2] was -5.83%.

Turning to `CCCCCN(CCCCC)C(=O)C(CCC(=O)O)NC(=O)c1ccc(Cl)c(Cl)c1` (configuration not stated) [lorglumide], the mCherry in test [1] is 105% and 95.4%. In addition, in test [2], the percent effect is -2.76% and -1.9%.

In test [1], `CCOC1O[C@H]([C@@H](COCc2ccccc2)OCc2ccccc2)[C@H](OCc2ccccc2)[C@H]1O` (some centres not stated) showed a mCherry of 96%. For the same compound, the percent effect in test [2] was -1.49%.

In turn, `CCC[C@H](N[C@@H](C)C(=O)N1[C@H](C(=O)O)C[C@@H]2CCCC[C@@H]21)C(=O)OCC` showed a mCherry in test [1] of 120%. Besides, the percent effect in test [2] was -0.978%.

In test [1], `C[C@@H]1C(=O)O[C@H]2C[C@@]34[C@H]5C[C@@H](C(C)(C)C)[C@]36[C@@H](OC(=O)[C@@H]6O)O[C@@]4(C(=O)O5)[C@]21O` [Ginkgolide A] showed a mCherry of 78.9%. Also, the percent effect in test [2] was -2.45%.

In the case of `Oc1ncnc2[nH]ncc12` [allopurinol], the mCherry in test [1] is 93.4%. Also, the percent effect in test [2] was -2.01%.

Compound `CNC[C@H](O)[C@@H](O)[C@H](O)[C@H](O)CO` [Meglumine] returned a mCherry in test [1] of 104%. The percent effect in test [2] was determined as 0.85%.

With `Nc1nc(N)c2nc(-c3ccccc3)c(N)nc2n1` [triamterene], the mCherry in test [1] came to 96.1%. The percent effect in test [2] was -2.34%.

In test [1], `Oc1c(I)cc(I)c2cccnc12` [5,7-Diiodo-8-hydroxyquinoline] displayed a mCherry of 798%. Further, the percent effect in test [2] was -22.9%.

As for `CC(C)(Sc1cc(C(C)(C)C)c(O)c(C(C)(C)C)c1)Sc1cc(C(C)(C)C)c(O)c(C(C)(C)C)c1` [probucol], the mCherry in test [1] was 79.5%. Further, in test [2], the percent effect was -4.15%.

`Nc1ncnc(Nc2ccc(Cl)cc2)n1` came in with a mCherry in test [1] of 101%. In addition, the percent effect in test [2] was -0.823%.

As to `COc1cc(N)c(Cl)cc1C(=O)NC1CCN(Cc2ccccc2)CC1` [clebopride], the mCherry in test [1] was determined as 94.3%. Moreover, the percent effect in test [2] is -2.25%.

Compound `CCOc1ccc2nc(S(N)(=O)=O)sc2c1` had a mCherry in test [1] of 84.8%. Moreover, the percent effect in test [2] is -1.09%.
